In patent US20220033904A1 one finds binding data, which are given here for one substance.

Results are given in words; binding and its absence hold for the method and conditions named. Binding seen in cells or lysates may run through a third protein. Binding calls can cover weak binding; strength is not graded here.

Assay [1] addresses T1, USP8 (UniProt P40818).
T1 sequence (looked up): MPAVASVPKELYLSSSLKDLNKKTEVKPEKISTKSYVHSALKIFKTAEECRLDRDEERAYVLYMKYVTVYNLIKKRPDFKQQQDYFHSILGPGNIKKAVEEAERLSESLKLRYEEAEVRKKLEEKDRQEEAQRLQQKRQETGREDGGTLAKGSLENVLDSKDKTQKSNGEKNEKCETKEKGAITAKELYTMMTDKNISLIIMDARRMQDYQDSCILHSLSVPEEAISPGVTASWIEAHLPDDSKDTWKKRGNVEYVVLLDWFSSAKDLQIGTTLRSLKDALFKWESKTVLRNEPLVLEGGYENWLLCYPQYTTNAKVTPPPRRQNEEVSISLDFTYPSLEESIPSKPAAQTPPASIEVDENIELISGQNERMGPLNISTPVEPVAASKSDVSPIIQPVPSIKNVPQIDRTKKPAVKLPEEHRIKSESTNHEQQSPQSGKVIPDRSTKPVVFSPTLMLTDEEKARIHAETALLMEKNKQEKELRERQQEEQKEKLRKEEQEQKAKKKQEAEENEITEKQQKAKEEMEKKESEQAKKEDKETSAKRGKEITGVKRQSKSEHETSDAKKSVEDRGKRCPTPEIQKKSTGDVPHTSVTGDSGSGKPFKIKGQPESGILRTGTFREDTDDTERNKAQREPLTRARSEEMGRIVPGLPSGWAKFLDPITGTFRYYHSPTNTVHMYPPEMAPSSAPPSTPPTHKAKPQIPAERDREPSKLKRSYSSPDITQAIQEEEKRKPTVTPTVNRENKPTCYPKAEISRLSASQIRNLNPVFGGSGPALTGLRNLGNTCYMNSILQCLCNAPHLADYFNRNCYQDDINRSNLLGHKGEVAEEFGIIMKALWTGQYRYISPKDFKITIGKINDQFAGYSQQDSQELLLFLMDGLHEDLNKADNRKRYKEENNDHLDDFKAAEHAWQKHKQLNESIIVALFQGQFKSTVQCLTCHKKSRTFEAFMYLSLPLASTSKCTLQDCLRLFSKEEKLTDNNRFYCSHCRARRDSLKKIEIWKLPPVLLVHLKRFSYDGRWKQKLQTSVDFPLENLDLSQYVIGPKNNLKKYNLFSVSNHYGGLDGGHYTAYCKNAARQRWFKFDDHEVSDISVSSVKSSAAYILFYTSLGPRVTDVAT
The assay is described as follows: co-IP with TMEM79 overexpressed or knocked out (FIG. 11D, 11E).

Assay [2] concerns the target T1, USP8. The assay is described as follows: co-IP in TMEM79 knockout cells; also unaffected by TMEM79 overexpression (FIG. 11D, 11E).

Regarding FZD5 (receptor), the binding result in the assay with USP8 [1] and in the assay with USP8 [2] was “binds” each time.
